Data as given in US20080214530A1, “Photo-Activated Disinfection” (priority 2003, published 2008).
For at least one compound, name, drawing or mass did not settle the structure.

System: root canal
Assay: photo-activated bacterial kill in root canal geometry, cylindrical emitter
Settings: TBO on inside surface of root canal, 635 nm, 100 mW power, 120 S exposure

Cc1cc2nc3ccc(N(C)C)cc3[s+]c2cc1N [tolonium chloride]
bacterial kill: High kills
